This passage reports binding results from patent publication US20250313647A1 (CHILDREN S MEDICAL CENTER, published 2025).

Amino acid sequences for entries named in this document (tags omitted). A change or cut given only in a name is not applied to a line headed by its entry. Chains listed by the source or under a name are the forms on record and can include a tag or linker.
human mutant nucleophosmin 1 (NPM1c) (P06748, form named): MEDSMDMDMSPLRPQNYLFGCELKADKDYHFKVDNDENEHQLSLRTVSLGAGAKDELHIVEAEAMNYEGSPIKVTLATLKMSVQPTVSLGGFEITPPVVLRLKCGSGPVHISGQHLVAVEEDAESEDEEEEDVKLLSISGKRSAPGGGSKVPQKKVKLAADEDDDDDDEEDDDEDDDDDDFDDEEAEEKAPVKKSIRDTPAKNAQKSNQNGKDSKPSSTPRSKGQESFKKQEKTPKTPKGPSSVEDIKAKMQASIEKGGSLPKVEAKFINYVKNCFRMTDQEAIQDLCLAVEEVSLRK

Results are given in words; binding and its absence hold for the method and conditions named. Some binding calls cover weakened binding; strength is not graded here.

In assay [1] the target is human mutant nucleophosmin 1 (NPM1c) (human) (UniProt P06748). In words: FACS, human NPM1c PDX cells (FIG. 8B).
Assay [2] shares this target. The assay is described as follows: flow cytometry, human AML PDX-2 (NPM1c) cells from mice.

B1: Ab1 anti-NPM1 antibody (antibody, V domains shown)
VH: EVQLQQSVAELVRPGASVKLSCTASGFNIKNIFVHWVKQRPEQGLEWIGKIDPANDNTKFAPNFQGKAAISADTSSNTAYLQLSSLTSEDTAIYYCASDSSGYDAVDYWGQGTSVTVSS
VL: DIQMTQSPASLSASVGETVTITCRASESVYTYLAWYQQKQGKSPQLLVYNAKTLTEGVPSRFSGSGSGTQFSLRINSLQPEDFGSYYCQHHYGTPYTFGSGTKLEIKR
notes: also called isolated WT anti-NPM1 antibody
Take B1: the binding result in assay [1] and in assay [2] was “binds” in each case.
